{
  "source": "PubChem BioAssay AID540276",
  "about": "(National Center for Advancing Translational Sciences (NCATS), 2011)",
  "note": "Where “and” joins values, the source holds several entries; their conditions need not be identical. Identical values can stand only once. Out of some 300,000 compounds screened, about 5,400 (1.8%) were called active. Inconclusive results, whose numbers are uncertain, are shown with a selection of clear calls. Calls follow the shape of the full dose curve; tested in HEK293 cells. A potency beside an inconclusive call is a rough fit, not a confirmed value. % is scaled to controls: 0 for no effect and ±100 for the full control effect; potency is read from the fitted curve at half-maximal effect.",
  "data": [
    {"test": "qHTS for inhibitors of binding or entry into cells for Marburg Virus", "settings": "Marburg virus pseudotyped entry inhibition, cell reporter; activity change, negative = inhibition: at 37.8 µM (top of the series) unless noted", "values": [
      {"molecule": "CCOC(=O)c1c(C)[nH]c(N=Nc2ccccc2C)c1C", "Potency": "inconclusive: 32.6 µM [inhibitor, single point]"},
      {"molecule": "COc1cccc(-n2cc(CN(C)Cc3nc(Cc4ccccc4)no3)cn2)c1", "activity change, negative = inhibition": "inactive: -8.18% [at 46.1 µM]"},
      {"molecule": "COc1ccc(Cl)cc1S(=O)(=O)N1CCN=C1Cc1ccccc1", "Potency": "inconclusive: 17.8 µM [activator, single point]"},
      {"molecule": "O=C(c1nn(-c2ccccc2)c(=O)c2ccccc12)N1CCN(c2ccccn2)CC1", "Potency": "inconclusive: 23.1 µM [inhibitor, single point]"},
      {"molecule": "CCCCCCCCCCCCCCCC(=O)Nc1ccn(C2OC(CO)C(O)C2O)c(=O)n1", "note": "(configuration not stated)", "Potency": "inconclusive: 35.5 µM [inhibitor, single point]"},
      {"molecule": "CCCNC(=O)COC(=O)c1cc(-c2ccc(OC)cc2)nc2ccccc12", "Potency": "inconclusive: 0.891 µM [inhibitor, partial curve, poor fit]"},
      {"molecule": "CC(C)CNC(=O)COc1ccc(Sc2ccc(OCC(=O)NCC(C)C)cc2)cc1", "activity change, negative = inhibition": "inactive: 12.8%"},
      {"molecule": "COC(=O)CCC(=O)Nc1cccc([N+](=O)[O-])c1", "activity change, negative = inhibition": "inactive: 4.01%"},
      {"molecule": "COc1cccc(C=Nc2ccccc2C(=O)Nc2nccs2)c1OC", "activity change, negative = inhibition": "inactive: -2.72%"},
      {"molecule": "O=C(Nc1cc(Oc2ccc(Cl)cc2)cc([N+](=O)[O-])c1)c1ccco1", "Potency": "inconclusive: 35.5 µM [inhibitor, single point]"},
      {"molecule": "Cc1nnc(SCC(=O)Nc2cc(-c3cc(C)c(C)cc3C)nn2-c2ccccc2)s1", "Potency": "inconclusive: 29.1 µM [inhibitor, single point]"},
      {"molecule": "CC1C(=O)OC(c2ccc(Cl)cc2)C(C)(C)C1=O", "note": "(configuration not stated)", "Potency": "inconclusive: 0.794 µM [activator, full curve, poor fit]"},
      {"molecule": "Cc1cc(C)n2nc(C(=O)N(C)C(c3ccccc3)c3ccccc3)nc2n1", "Potency": "inconclusive: 0.562 µM [activator, full curve, poor fit]"},
      {"molecule": "CC(C)(C)NC(=O)C(c1cccs1)N(CC1CCCO1)C(=O)c1ccc(-c2ccccc2)[nH]1", "note": "(configuration not stated)", "Potency": "inconclusive: 1 µM [inhibitor, full curve, poor fit]"},
      {"molecule": "CC(C)c1ccc(/C=C(\\c2nc3ccccc3[nH]2)S(=O)(=O)c2ccccc2)cc1", "Potency": "inconclusive: 5.62 µM [inhibitor, full curve, poor fit]"},
      {"molecule": "COc1ccc2[nH]c3c(=O)n(Cc4ccncc4)cnc3c2c1", "Potency": "inconclusive: 6.31 µM [activator, single point]"},
      {"molecule": "Cc1cc(C)c(NC(=O)Cn2nc(-c3ccccc3)nc2-c2ccccc2)c(C)c1", "Potency": "inconclusive: 7.94 µM [activator, partial curve, poor fit]"},
      {"molecule": "CC1CCOC(=O)C=CC=CC(=O)OC2CC3OC4C5OC5(C)C(O)CC4(COC(=O)C1O)C2(C)C31CO1", "note": "(configuration not stated)", "Potency": "inconclusive: 0.0891 µM [inhibitor, full curve, poor fit]"},
      {"molecule": "COc1ccccc1/C=C/CN1CCCC(CCC(=O)NCc2ccccc2F)C1", "note": "(configuration not stated)", "Potency": "active: 6.31 µM"},
      {"molecule": "COC(=O)Cc1ccc(NC(=S)NCc2ccccc2)cc1", "activity change, negative = inhibition": "inactive: 1.35%"},
      {"molecule": "O=C(O)C1CCN(C(=O)OCc2ccccc2)CC1", "Potency": "inconclusive: 2.82 µM [activator, full curve, poor fit]"},
      {"molecule": "COC(=O)c1ccc(-n2c(C)nc(=O)c(-c3ccccc3)c2C)cc1", "activity change, negative = inhibition": "inactive: -5.41%"},
      {"molecule": "COc1ccc(C(=O)N/N=C/C(Br)=C/c2ccccc2)cc1", "activity change, negative = inhibition": "inactive: -2.43%"},
      {"molecule": "CC1CCCCC1OCC(O)Cn1c2c(c3c1CCCC3)CCCC2", "note": "(configuration not stated)", "Potency": "inconclusive: 29.1 µM [inhibitor, single point]"},
      {"molecule": "CCCNC(=O)c1cc(-c2ccc(Br)cc2)on1", "Potency": "inconclusive: 35.5 µM [activator, single point]"},
      {"molecule": "C=CCOC(=O)N[C@H](/C(C(=O)OC)=C(\\C)NCc1ccccc1)c1ccc(C)cc1", "Potency": "inconclusive: 0.0011 µM [activator]"},
      {"molecule": "CCC(CC)c1nnc(NC(=O)c2cccc(S(=O)(=O)N3CCc4ccccc43)c2)s1", "activity change, negative = inhibition": "inactive: -22.4%"},
      {"molecule": "CC(C)COP(=O)(OCC(C)C)C(Nc1ccccc1)c1ccc(F)cc1", "note": "(configuration not stated)", "Potency": "inconclusive: 18.4 µM [inhibitor, partial curve, poor fit]"},
      {"molecule": "COc1ccc(C2N(c3ccc(C)cc3)CCN2c2ccc(C)cc2)cc1O", "Potency": "inconclusive: 10 µM [inhibitor, partial curve, poor fit]"},
      {"molecule": "O=C(O)Cc1coc2cc3c(cc12)CCC3", "activity change, negative = inhibition": "inactive: 9.42%"},
      {"molecule": "O=C1NC(=O)C2(CCc3ccccc32)N1", "note": "(configuration not stated)", "Potency": "inactive"},
      {"molecule": "Cn1c(SCC(=O)N2c3ccccc3CCc3ccccc32)nnc1-c1ccc(O)cc1", "Potency": "inconclusive: 5.62 µM [activator, single point]"},
      {"molecule": "Cn1cc(C(=O)C(=O)N2CCN(c3ccccc3)CC2)c2ccccc21", "activity change, negative = inhibition": "inactive: -9.38% [at 46.1 µM]"},
      {"molecule": "c1cncc(-c2noc(CC3CCCCC3)n2)c1", "activity change, negative = inhibition": "inactive: 2.82% [at 46.1 µM]"},
      {"molecule": "NN(CCO)C(=S)Nc1ccc(Cl)cc1", "activity change, negative = inhibition": "inactive: 25.3% [at 46.1 µM]"},
      {"molecule": "Cc1ccc(S(=O)(=O)Nc2ncnc3sc(C)c(C)c23)cc1", "activity change, negative = inhibition": "inactive: -7.62%"},
      {"molecule": "NC(=O)C1=NOC(CNc2ncc(C(F)(F)F)cc2Cl)C1", "note": "(configuration not stated)", "Potency": "inconclusive: 35.5 µM [inhibitor, single point]"},
      {"molecule": "Cc1c(C(=O)NNC(=S)Nc2cccc(Cl)c2)nnn1-c1ccccc1", "Potency": "inconclusive: 18.4 µM [activator, single point]"},
      {"molecule": "O=C(NN1CCOCC1)c1cc(-c2ccc(Br)cc2)nc2ccccc12", "activity change, negative = inhibition": "inactive: 12.5%"},
      {"molecule": "Cc1[nH]c2ccccc2c1N=Nc1ccccc1C(=O)O", "activity change, negative = inhibition": "inactive: 10.7%"},
      {"molecule": "Cc1ccc(OCc2nnc(SCC(=O)N3c4ccccc4Sc4ccc(Cl)cc43)o2)cc1", "Potency": "inconclusive: 0.631 µM [inhibitor, full curve, poor fit]"},
      {"molecule": "COc1ccc2cc(C(=O)NCc3ccco3)c(=Nc3ccc(C(=O)O)cc3)oc2c1", "activity change, negative = inhibition": "inactive: -11.8%"},
      {"molecule": "Cc1ccc(CN(C)C(=O)c2cc(Br)c(Br)s2)o1", "activity change, negative = inhibition": "inactive: 0.175% [at 46.1 µM]"},
      {"molecule": "O=C(Cn1cnc2cc([N+](=O)[O-])ccc2c1=O)Nc1ccc2c(c1)OCO2", "Potency": "inconclusive: 1.58 µM [inhibitor, full curve, poor fit]"},
      {"molecule": "COc1ccccc1CCC(=O)Nc1ccc2c(c1)CN(Cc1ccc(C)o1)CC2", "Potency": "inconclusive: 4.47 µM [activator, partial curve, poor fit]"},
      {"molecule": "O=C(CS(=O)(=O)c1ccccc1)NCc1ccccc1", "activity change, negative = inhibition": "inactive: 4.92% [at 46.1 µM]"},
      {"molecule": "Cc1cccc(NC(=S)NC(NC(=O)OCc2ccccc2)C(Cl)(Cl)Cl)c1", "note": "(configuration not stated)", "Potency": "inconclusive: 29.1 µM [inhibitor, single point]"},
      {"molecule": "O=C(Nc1ccc(Cl)cc1)N1CCc2ccccc2C1", "Potency": "inconclusive: 1.41 µM [activator, partial curve, poor fit]"},
      {"molecule": "CCOC(=O)c1c(Nc2ccccc2)sc(/C=C2\\C=Nc3ccccc32)c1O", "Potency": "inconclusive: 16.4 µM [inhibitor, single point]"},
      {"molecule": "CCOc1ccccc1Nc1nc(N)nc(CSc2nccc(C)n2)n1", "activity change, negative = inhibition": "inactive: -2.03%"},
      {"molecule": "O=[N+]([O-])c1cccc(C=NN2CCCCCC2)c1", "activity change, negative = inhibition": "inactive: 2.81%"},
      {"molecule": "COc1ccc(C(=S)Nc2ccc(C)cc2)cc1", "Potency": "inconclusive: 0.794 µM [activator, single point]"},
      {"molecule": "Cc1ccc(COC(=O)c2cccc(S(=O)(=O)N3CCCCCC3)c2)cc1", "Potency": "inconclusive: 25.1 µM [inhibitor, single point]"},
      {"molecule": "O=C(NCCOc1ccccc1F)c1cccc(S(=O)(=O)N2CCN(c3ccccc3)CC2)c1", "Potency": "inconclusive: 35.5 µM [inhibitor, single point]"},
      {"molecule": "C#CCOCCOCCOCCNc1nc(N2CCOCC2)nc(N2CCN(C(=O)[C@H](C)n3cc(CCCN=C(N)N)nn3)CC2)n1", "activity change, negative = inhibition": "inactive: 2.49%"},
      {"molecule": "C=CCn1cnc2c(c1=O)c1nc3ccccc3nc1n2/N=C/c1ccccn1", "Potency": "inactive and inconclusive: 32.6 µM [inhibitor, single point]"},
      {"molecule": "Cn1c(SCc2ccc(F)cc2)nc2ccc(C(=O)NCc3ccc(F)cc3)cc21", "Potency": "inconclusive: 2.51 µM [inhibitor, single point]"},
      {"molecule": "CC1CCN(C(CNS(=O)(=O)c2ccccc2)c2ccccc2)CC1", "note": "(configuration not stated)", "Potency": "inconclusive: 35.5 µM [inhibitor, single point]"},
      {"molecule": "CCCc1cc(=O)[nH]c(SCC(=O)Nc2nc(-c3ccccc3)cs2)n1", "Potency": "inconclusive: 5.62 µM [activator, single point]"},
      {"molecule": "Nc1ccn([C@H]2CC[C@@H](CO)O2)c(=O)n1", "activity change, negative = inhibition": "inconclusive: -4.99% [inhibitor]"},
      {"molecule": "Fc1cccc(Cl)c1Cn1nnc2c(NCc3ccccn3)ncnc21", "activity change, negative = inhibition": "inactive: -1.75% [at 46.1 µM]"},
      {"molecule": "Cc1ccc(NC(=O)CN2C(=O)NC3(CCCCC3C)C2=O)cc1S(=O)(=O)N1CCCCC1", "note": "(configuration not stated)", "activity change, negative = inhibition": "inactive: -27.4%"},
      {"molecule": "Cc1ccc(C)c(NC(=O)c2cc(-c3cc(C)ccc3O)n[nH]2)c1", "activity change, negative = inhibition": "inactive: 6.97%"},
      {"molecule": "O=C(NCCCNC(=O)c1ccco1)c1cccc(F)c1", "activity change, negative = inhibition": "inactive: 2.16% [at 46.1 µM]"},
      {"molecule": "O=C(NCCCCc1ccccc1)c1ccccc1", "activity change, negative = inhibition": "inactive: -10.6%"},
      {"molecule": "Cc1cccc(NC(=S)NNC(=O)c2ccco2)c1", "Potency": "inconclusive: 0.231 µM [activator, single point]"},
      {"molecule": "O=C(Nc1ccc(F)cc1)C(c1ccccc1)N1CCN(S(=O)(=O)c2ccc3ccccc3c2)CC1", "note": "(configuration not stated)", "Potency": "inconclusive: 15.8 µM [inhibitor, single point]"},
      {"molecule": "Cc1ccc(C)c(CN2C(=O)c3ccccc3S(=O)(=O)c3ccc(C(=O)Nc4ccccc4C(F)(F)F)cc32)c1", "Potency": "inconclusive: 12.6 µM [inhibitor, partial curve, poor fit]"},
      {"molecule": "COc1ccc(/C(O)=C2/C(=O)C(=O)N(CCN(C)C)C2c2cccnc2)cc1C", "note": "(configuration not stated)", "Potency": "inconclusive: 6.31 µM [activator, single point]"},
      {"molecule": "CSc1ncccc1C(=O)NC(C)C1CC2CCC1C2", "note": "(configuration not stated)", "activity change, negative = inhibition": "inactive: -2.44% [at 46.1 µM]"},
      {"molecule": "CC(=O)c1ccc(N2CCN(C(=O)C3CCCN(S(=O)(=O)c4cnc[nH]4)C3)CC2)cc1", "note": "(configuration not stated)", "activity change, negative = inhibition": "inactive: 18%"},
      {"molecule": "CC(OC(=O)c1nccnc1N)C(=O)Nc1ccc(S(=O)(=O)N2CCCC2)cc1", "note": "(configuration not stated)", "Potency": "inconclusive: 5.62 µM [inhibitor, partial curve, poor fit]"}
    ]}
  ]
}
